PubChem BioAssay AID652259, Drosophila RNAi Screening Center – 2013
Aim: 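Identify new Wingless signalling regulators in fly cells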 (primary screen). Cells: Drosophila clone 8 imaginal disc epithelial cells. Knock-down reagent: long dsRNA against Drosophila genes. Conditions: pathway stimulated by co-transfected Wingless expression plasmid. Read-out: 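Dual luciferase reads per well after Wingless plasmid stimulation: reporter firefly light and Renilla control light; activity is firefly divided by Renilla, a ratio not deposited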. Scale: firefly reporter light: higher = more Wg reporter light, before normalisation; Renilla control light: higher = more transfected or surviving cells. Rule for the call: 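Strong candidates differ from their plate mean by at least two out of four per-plate statistical tests; weak candidates meet just one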. Calls: active = candidate regulator (raises or lowers reporter); inactive = not a candidate.
The deposit covers about 22,000 reagents; below is an unselected part of those that have a named target and a result. Of all reagents, 233 (1.1%) got an active call. 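Light values are raw, unnormalised plate reads; the ratio scores behind the reporter calls were not deposited.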 Entries without a mark were called inactive. A plus sign joins genes that one reagent is predicted to hit. Not stated in the record: the amount of reagent, the time to read-out, the dose of the treatment.

target gene | DRSC id | reporter change call, replicate 1 | firefly reporter light, replicate 1 | firefly reporter light, replicate 2 | Renilla control light, replicate 1 | Renilla control light, replicate 2
Cnx14D | DRSC20214 | – | 25832 | – | 11312 | –
CR31958 | DRSC00282 | – | 4296 | 10144 | 1224 | 3986
CR31958 | DRSC21858 | – | 4.13e5 | 3.48e5 | 1.57e5 | 1.53e5
CheB42c | DRSC04972 | – | 2941 | 7040 | 896 | 2936
CG15824 | DRSC00473 | – | 3507 | 11307 | 1811 | 3858
Vps13B | DRSC15060 | – | 5954 | – | 2765 | –
Zaf1 | DRSC16121 | – | 13939 | – | 3628 | –
tara | DRSC17076 | – | 22160 | – | 4380 | –
CG15576 | DRSC18064 | – | 19500 | – | 8918 | –
Hacd1 | DRSC02988 | – | 5025 | – | 1450 | –
lin-28 | DRSC10261 | – | 2443 | 8611 | 1792 | 4710
Cnep1r2 | DRSC10950 | – | 7458 | – | 3152 | –
Afti | DRSC16440 | – | 3093 | – | 2186 | –
CG3823 | DRSC18325 | – | 32301 | – | 13857 | –
Gip | DRSC18667 | – | 2675 | – | 1203 | –
CG11007 | DRSC06023 | – | 8245 | – | 2695 | –
Dnah3 | DRSC08130 | – | 3722 | – | 1529 | –
Dnah3 | DRSC08513 | – | 2068 | 6912 | 1123 | 3004
Gdh | DRSC16679 | – | 1277 | 3729 | 790 | 1632
CG14034 | DRSC02359 | – | 1883 | 5362 | 904 | 1936
His4r | DRSC16703 | – | 11319 | – | 423 | –
CG6685 | DRSC10695 | – | 5883 | – | 3306 | –
CG3436 | DRSC00605 | – | 7218 | – | 2820 | –
CG10154 | DRSC09707 | – | 5526 | – | 2210 | –
Naa30A | DRSC18583 | – | 1787 | 3649 | 721 | 904
mdlc | DRSC15690 | – | 1904 | 7360 | 720 | 1943
spdo | DRSC13988 | – | 3107 | – | 1050 | –
CG15186 | DRSC12566 | – | 13081 | – | 2202 | –
Polr1E | DRSC14506 | – | 10560 | – | 3232 | –
Polr1E | DRSC15358 | – | 2442 | 5863 | 1243 | 2284
hbt + CG43779 | DRSC02503 | – | 3024 | 7856 | 829 | 2496
SmydA-5 | DRSC04867 | – | 3306 | 6769 | 781 | 2742
CG2120 | DRSC18207 | – | 18488 | – | 7354 | –
CG30467 | DRSC07097 | – | 8074 | – | 1937 | –
ReepA | DRSC04572 | – | 7894 | – | 1955 | –
ReepA | DRSC22475 | – | 5.83e5 | 5.74e5 | 1.99e5 | 1.62e5
CG13557 | DRSC04195 | – | 3292 | 7259 | 762 | 3046
Dh44 | DRSC12747 | – | 4028 | – | 1845 | –
Dh44 | DRSC16409 | – | 14075 | – | 3627 | –
pzg | DRSC11848 | – | 5076 | – | 556 | –
Cyp4d8 | DRSC11131 | – | 4192 | – | 2074 | –
Gr47a | DRSC06221 | – | 2363 | 6950 | 537 | 2352
CG13000 | DRSC19519 | – | 23229 | – | 9853 | –
Nlg3 | DRSC12477 | – | 4411 | – | 646 | –
Nlg3 | DRSC12524 | – | 10577 | – | 2514 | –
Nlg3 | DRSC12540 | – | 10716 | – | 2370 | –
Nlg3 | DRSC12574 | Wg reporter activity lowered (active) | 4738 | – | 3845 | –
Sil1 | DRSC14242 | – | 2704 | 4864 | 1427 | 1690
Fcp1 | DRSC04121 | – | 12252 | – | 3466 | –
CG5131 | DRSC02817 | – | 3047 | 8450 | 1296 | 3408
CG7320 | DRSC10810 | – | 5032 | – | 2509 | –
Rbcn-3A | DRSC18314 | – | 25412 | – | 12465 | –
CG32718 | DRSC17538 | – | 2115 | – | 1274 | –
ng3 | DRSC18804 | – | 16752 | – | 12176 | –
Fer2LCH | DRSC16672 | – | 6534 | – | 1936 | –
CG3348 | DRSC15480 | – | 7317 | – | 5075 | –
ssp2 | DRSC11052 | – | 8938 | – | 2123 | –
CG15743 | DRSC19709 | – | 23473 | – | 11930 | –
hppy | DRSC07014 | – | 6384 | – | 2211 | –
hppy | DRSC07015 | – | 6791 | – | 2928 | –
hppy | DRSC07016 | – | 5691 | – | 1532 | –
Obp83a | DRSC12362 | – | 17185 | – | 4232 | –
Flacc | DRSC20040 | – | 1932 | 6781 | 1147 | 2672
Pepck2 | DRSC06013 | – | 5818 | – | 2603 | –
CG4313 | DRSC18514 | – | 3330 | 7377 | 1104 | 1834
yellow-c + CIAPIN1 | DRSC01898 | – | 2912 | 4868 | 1056 | 2736
CecC | DRSC16606 | – | 6578 | – | 2938 | –
CG6362 | DRSC07413 | – | 6296 | – | 2188 | –
CG15141 | DRSC02441 | – | 10889 | – | 3920 | –
CG15141 | DRSC02442 | – | 3140 | 7776 | 1248 | 3744
Pgm2a | DRSC07068 | – | 8586 | – | 2982 | –
lncRNA:CR42862 | DRSC08348 | – | 14229 | – | 4358 | –
CG32117 | DRSC21652 | – | 5.66e5 | 5.37e5 | 3.03e5 | 2.20e5

7 entries from above, arranged by “Renilla control light, replicate 1”, ascending.
target gene | DRSC id | reporter change call, replicate 1 | firefly reporter light, replicate 1 | firefly reporter light, replicate 2 | Renilla control light, replicate 1 | Renilla control light, replicate 2
His4r | DRSC16703 | – | 11319 | – | 423 | –
Gdh | DRSC16679 | – | 1277 | 3729 | 790 | 1632
CG14034 | DRSC02359 | – | 1883 | 5362 | 904 | 1936
Dnah3 | DRSC08513 | – | 2068 | 6912 | 1123 | 3004
Dnah3 | DRSC08130 | – | 3722 | – | 1529 | –
CG11007 | DRSC06023 | – | 8245 | – | 2695 | –
CG6685 | DRSC10695 | – | 5883 | – | 3306 | –
